Data as given in patent US12178838B2, “Synthetic neuromodulatory peptides” (Lactocore, Inc., priority 2019, dated 2024).
Like-named read-outs stand apart in the source and are kept apart here. Not every detail of the peptide structures is certain; ends, links or a residue may be inferred. Residues, ends and D or L forms follow the SMILES beside them.

What was measured:
BALB/C mice = experiment: Elevated Plus Maze test in mice; assay type: in vivo; conditions: ip
Experimental: After an adaptation period, the test substance was intraperitoneally injected into mice. Behavioral parameters were measured in 30 minutes after injection. The tests were administered as follows: day 1—the Open field test, day 3—the Elevated plus maze test, day 5—the Marble burying test, days 12-13—the Porsolt swim (two-day modification) test.
In the elevated plus maze test, a test arena includes two open and two closed arms crossed in the middle. The arm length is 30 cm, the height of the closed arms side walls is 15 cm. The entire installation is raised 70 cm above the floor. The open arms have bright uniform illumination of about 400 lux, and the closed arms have illumination of about 30-40 lux. Mice were placed at the junction of the four arms of the maze (center), facing an open arm. The following behavioral parameters were automatically registered by the EthoVision, Noldus program within 5 minutes of the experiment: a total distance (cm), a time of motion (if the speed is more than 5 cm/s), an immobility (if the speed is less than 0.2 cm/sec), a mean and maximum velocity, and the number of episodes of motor activity and “freezing”. The same set of parameters, as well as a latent period and the duration of stay, were measured for the central sector, open and closed arms separately. (Manufactured by OpenScience, Russia).
All substances were injected intraperitoneally in a volume of 10 μl of solution per 1 gram of animal weight 30 minutes prior to behavioral testing.
The second group of parameters includes a time on open arms (in seconds) (FIG. 35), a number of open arms entries (FIG. 36), a number of risk behavior (number of rearings and dangle events, as shown in FIG. 37]), and an anxiety index (FIG. 38). The anxiety index (AI) was calculated using the following formula: AI=100*(1−(time on open arms/total test time+open arms entries/total number of entries)/2)

Sprague Dawley rats [1] = assay type: in vivo
Experimental: (§1) The five doses of FQSE (SEQ ID NO:10) (0.01, 0.1, 0.5, 1 and 3 mg/kg, CS, Menlo Park, CA) were prepared fresh for each test day in sterile saline and administered intranasally (i.n.) 30 minutes prior to testing. Fifteen rats per group per peptide dose were tested with the exception that there were twenty rats in the vehicle (0) group. Each dose was administered in a randomized order across rats. Prior to dosing, the rats were lightly anesthetized (till loss of righting reflex) with isoflurane (2.5%, 0.5 L/min oxygen), placed in the recumbent position, then a thin plastic pipette (Fischer Scientific) inserted into the nares and peptide administered at a volume of 15-20 uL per nares. Individuals performing the behavioral tests were blind to drug treatment.
Open field tests occurred in open field apparatus constructed of gray Plexiglas (17″L×17″ W×12″ H (43.2 cm×43.2 cm×30.5 cm; Noldus, Leesburg, VA) with digital cameras positioned above the arenas to detect different measures of activity using specialized software (Ethovision, XT12). Rats were first allowed to acclimate to the testing room for 30 minutes while in their home cage. The test was initiated by placing the animal in the center of the open field chamber and behavior recorded for 30 minutes. The observer was not in the room during testing. Testing was conducted under red-light. Arenas were cleaned thoroughly between subjects with LpH disinfectant.
(§2) Statistical significance was set at P<0.05.

[2] = system: Wistar rats after chronic unpredictable mild stress; experiment: CUMS model: Porsolt forced swimming test; assay type: in vivo; conditions: for immobilization time: 18 injections
Experimental: During stress, the animals were placed in individual cells and exposed to stressful conditions each day for 26 days. Two stressors were used daily, applied in the following order: • Day 1. 10 am-6 pm, rats were placed in a cold room for an hour. From 6 PM to 10 am the lights were turned on and off every 2 hours. • Day 2. 10 am-6 pm, cage tilted to 45°. From 6 PM to 10 am water deprivation. • Day 3. 10 am-6 pm, stroboscopic light. From 6 PM to 10 am the light was left on overnight. • Day 4. 10 am-6 pm, wet bedding. From 6 PM to 10 am the animals were put in a small mouse cage. • Day 5. 10 am-6 pm, no bedding. From 6 PM to 10 am the lights were turned on and off every 2 hours. • Day 6. 10 am-6 pm, a new rat was placed in the cage (6-month-old). From 6 PM to 10 am the light was left on overnight. • Day 7. 10 am-6 pm, white noise. From 6 PM to 10 am a stroboscopic light was turned on at night. • Day 8-26. Repetition of previously used stressors in the specified sequence.
Experimental substances were administered daily starting from the 58-59 day of the experiment. The administration took place 30 minutes before the start of behavioral testing. On days when there were no tests, the substances were administered in the morning.
The forced swim test is a rodent behavioral test used for the evaluation of antidepressant drugs, antidepressant efficacy of new compounds, and experimental manipulations that are aimed at rendering or preventing depressive-like states. During the test, each animal was placed in a cylinder filled with water (temperature 24° C.) to 30 cm for 8 minutes. The vessel diameter was 31 cm and height 40 cm. In the last 6 minutes, the duration of active (vigorous movement of all limbs) and passive (weak strokes of the hind limbs) swimming and immobility duration were recorded. The immobility parameter reflects the animal's state of desperation and refusal to attempt to escape from the experimental setup. This may reflect the state of apathy and motor retardation that occurs in clinical depression.

IKKb = experiment: LPS-induced neuroinflammation in primary glial cells: IKKb mRNA (qPCR); assay type: cell-based, murine
Sprague Dawley rats [3] = experiment: Forced swim test in rats, intranasal FQSE; assay type: in vivo
Experimental: as §1
Rats were first allowed to acclimate to the testing room for 30 minutes while in their home cage. The forced swim tests were conducted using Plexiglas cylinders (10 in width, 18 in height) filled with water maintained at approximately 25° C. On day 1, rats were first habituated (15 minutes) to the forced swim apparatus by being placed into the water facing the cylinder wall. Forced swim tests (5 minutes) occurred the following day. Activity was recorded by digital cameras and analyzed with specialized software (Ethovision XT12).
as §2

[4] = FQSE 1 mg/kg, Diazepam 0.75 mg/kg
[5] = FQSE 0.5 mg/kg i.n., ketamine 10 mg/kg IP

NC(=O)CC[C@H](NC(=O)[C@@H](N)Cc1ccccc1)C(=O)N[C@@H](CO)C(=O)N[C@@H](CCC(=O)O)C(=O)O [FQSE] (H-FQSE-OH)
Time on open arms (BALB/C mice; Diazepam 0.75 mg/kg, FQSE 20 mg/kg): 69.1 ± 9.98 s | immobility time (BALB/C mice; FQSE 1 mg/kg): 36.6 ± 3.97 s | The number of risk behavior (BALB/C mice; [4]): 15±2.1 | total distance (BALB/C mice; [4]): 1156±48.2 cm | Open arms entries (BALB/C mice; FQSE 10 mg/kg): 6.5±1.07 | The number of risk behavior (BALB/C mice; FQSE 10 mg/kg): 15±3.2 | Open arms entries (BALB/C mice; FQSE 20 mg/kg): 6.9±0.79 | The number of risk behavior (BALB/C mice; FQSE 20 mg/kg): 16±2.1 | immobility time (BALB/C mice; FQSE 20 mg/kg): 30.1 ± 3.07 s | total distance (BALB/C mice; FQSE 20 mg/kg): 1290±30.5 cm | center zone entries (Sprague Dawley rats [1]; FQSE 0.01 mg/kg i.n.): 49.1±6.5 | center zone time (Sprague Dawley rats [1]; FQSE 0.5 mg/kg i.n. 30 min before): 204.1 ± 46.6 s | center zone entries (Sprague Dawley rats [1]; FQSE 3 mg/kg i.n.): 54.1±4.6 | center zone time (Sprague Dawley rats [1]; FQSE 3 mg/kg i.n.): 166.2 ± 18.4 s | result obtained in FST (18 administrations) ([2]; CUMS, FQSE 0.5 mg/kg, Diazepam): antidepressant-like | immobilization time ([2]; FQSE 0.05 mg/kg i.n., Diazepam 0.5 mg/kg i.p.): did not differ | immobilization time ([2]; FQSE 0.5 mg/kg i.n., vs CUMS+veh): significantly reduced | expression of IKKb (IKKb): did not correlate | immobility (Sprague Dawley rats [3]; FQSE 0.1 mg/kg i.n.): 238.1 ± 9.19 s | immobility (Sprague Dawley rats [3]; [5]): 157.1 ± 7.98 s | mobility (Sprague Dawley rats [3]; [5]): 142.9 ± 7.98 s
